From publication PMC10788534 come the findings set out here.

By UniProt entry, the sequences of proteins in these tests, tags left out. Residues count along the entry.
UniProt Q01705, residues 1749-2293: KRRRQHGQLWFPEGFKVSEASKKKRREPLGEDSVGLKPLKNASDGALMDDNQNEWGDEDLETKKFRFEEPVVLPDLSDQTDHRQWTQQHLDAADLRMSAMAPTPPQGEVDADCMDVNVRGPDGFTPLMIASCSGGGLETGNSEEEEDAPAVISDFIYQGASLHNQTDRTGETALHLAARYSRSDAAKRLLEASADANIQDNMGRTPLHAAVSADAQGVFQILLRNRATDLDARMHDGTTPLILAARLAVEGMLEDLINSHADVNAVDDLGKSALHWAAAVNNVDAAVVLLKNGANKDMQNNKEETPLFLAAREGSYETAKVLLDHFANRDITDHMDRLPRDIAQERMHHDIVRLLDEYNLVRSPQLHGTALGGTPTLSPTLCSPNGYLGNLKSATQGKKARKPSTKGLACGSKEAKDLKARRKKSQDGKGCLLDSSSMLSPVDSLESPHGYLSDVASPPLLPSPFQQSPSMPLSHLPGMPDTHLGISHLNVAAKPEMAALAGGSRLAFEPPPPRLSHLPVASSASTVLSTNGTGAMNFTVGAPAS
UniProt Q8WXI9: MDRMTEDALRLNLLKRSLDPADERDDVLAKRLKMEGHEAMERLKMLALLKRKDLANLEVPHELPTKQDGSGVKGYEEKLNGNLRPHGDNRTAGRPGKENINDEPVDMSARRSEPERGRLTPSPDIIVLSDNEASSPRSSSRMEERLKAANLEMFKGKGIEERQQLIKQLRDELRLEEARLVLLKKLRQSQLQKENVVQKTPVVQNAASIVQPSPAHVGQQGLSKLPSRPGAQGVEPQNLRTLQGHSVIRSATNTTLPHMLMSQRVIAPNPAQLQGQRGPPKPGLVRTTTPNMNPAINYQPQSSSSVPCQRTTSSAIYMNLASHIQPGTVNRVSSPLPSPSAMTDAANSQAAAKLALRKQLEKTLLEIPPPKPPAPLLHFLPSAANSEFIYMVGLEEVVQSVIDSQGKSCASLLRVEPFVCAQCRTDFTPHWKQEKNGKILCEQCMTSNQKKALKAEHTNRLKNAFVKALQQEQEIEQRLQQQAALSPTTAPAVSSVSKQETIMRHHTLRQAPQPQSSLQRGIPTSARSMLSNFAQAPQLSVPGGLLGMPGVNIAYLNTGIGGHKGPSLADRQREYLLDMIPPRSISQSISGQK
UniProt Q8VHR5: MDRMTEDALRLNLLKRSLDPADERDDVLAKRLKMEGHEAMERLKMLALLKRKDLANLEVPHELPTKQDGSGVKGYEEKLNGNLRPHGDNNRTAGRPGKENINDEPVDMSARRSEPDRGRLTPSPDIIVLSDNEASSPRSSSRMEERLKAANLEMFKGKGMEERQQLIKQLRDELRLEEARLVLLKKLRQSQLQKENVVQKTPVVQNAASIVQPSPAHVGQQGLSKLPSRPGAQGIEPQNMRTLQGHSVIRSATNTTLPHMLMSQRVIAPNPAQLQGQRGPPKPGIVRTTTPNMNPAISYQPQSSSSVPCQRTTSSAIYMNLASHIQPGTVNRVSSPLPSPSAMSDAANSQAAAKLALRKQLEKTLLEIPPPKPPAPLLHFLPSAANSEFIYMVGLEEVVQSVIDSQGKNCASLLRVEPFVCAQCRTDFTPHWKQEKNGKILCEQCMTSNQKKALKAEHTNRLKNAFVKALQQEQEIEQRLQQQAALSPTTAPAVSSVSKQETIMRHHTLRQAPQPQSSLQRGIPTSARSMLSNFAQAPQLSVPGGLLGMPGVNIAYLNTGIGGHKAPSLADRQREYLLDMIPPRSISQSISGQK
UniProt Q8IZL2: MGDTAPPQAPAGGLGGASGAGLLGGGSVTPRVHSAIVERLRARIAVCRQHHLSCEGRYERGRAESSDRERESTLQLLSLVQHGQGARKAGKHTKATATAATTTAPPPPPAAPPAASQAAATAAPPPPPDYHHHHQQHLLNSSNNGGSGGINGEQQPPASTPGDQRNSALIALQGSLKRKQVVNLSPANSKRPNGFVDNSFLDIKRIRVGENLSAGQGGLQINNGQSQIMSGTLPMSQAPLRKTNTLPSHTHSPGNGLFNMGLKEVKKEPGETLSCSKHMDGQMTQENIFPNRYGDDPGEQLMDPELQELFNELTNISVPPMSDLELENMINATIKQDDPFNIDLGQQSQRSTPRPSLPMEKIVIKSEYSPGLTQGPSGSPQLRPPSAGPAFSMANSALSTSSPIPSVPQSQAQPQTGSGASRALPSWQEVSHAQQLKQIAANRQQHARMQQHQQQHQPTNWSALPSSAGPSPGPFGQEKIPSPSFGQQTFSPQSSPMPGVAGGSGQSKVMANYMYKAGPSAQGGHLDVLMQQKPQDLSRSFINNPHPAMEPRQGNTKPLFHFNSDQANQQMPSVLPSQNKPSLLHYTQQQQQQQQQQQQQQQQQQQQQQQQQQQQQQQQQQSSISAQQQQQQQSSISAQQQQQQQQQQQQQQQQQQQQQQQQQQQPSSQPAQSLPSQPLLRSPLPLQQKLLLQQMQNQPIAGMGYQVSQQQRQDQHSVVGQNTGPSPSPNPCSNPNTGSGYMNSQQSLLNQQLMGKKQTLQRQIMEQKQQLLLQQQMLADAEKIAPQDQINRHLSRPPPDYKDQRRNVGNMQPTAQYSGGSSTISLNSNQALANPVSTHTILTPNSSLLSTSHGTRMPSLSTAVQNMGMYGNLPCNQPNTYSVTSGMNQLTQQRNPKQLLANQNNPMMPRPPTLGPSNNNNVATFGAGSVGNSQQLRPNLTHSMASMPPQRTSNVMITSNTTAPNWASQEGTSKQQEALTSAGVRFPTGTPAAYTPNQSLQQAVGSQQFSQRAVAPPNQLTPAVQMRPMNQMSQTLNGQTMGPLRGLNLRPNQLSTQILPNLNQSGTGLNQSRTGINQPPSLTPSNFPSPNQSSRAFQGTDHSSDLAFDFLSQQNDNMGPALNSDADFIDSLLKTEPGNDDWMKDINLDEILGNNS
UniProt Q6P5D8: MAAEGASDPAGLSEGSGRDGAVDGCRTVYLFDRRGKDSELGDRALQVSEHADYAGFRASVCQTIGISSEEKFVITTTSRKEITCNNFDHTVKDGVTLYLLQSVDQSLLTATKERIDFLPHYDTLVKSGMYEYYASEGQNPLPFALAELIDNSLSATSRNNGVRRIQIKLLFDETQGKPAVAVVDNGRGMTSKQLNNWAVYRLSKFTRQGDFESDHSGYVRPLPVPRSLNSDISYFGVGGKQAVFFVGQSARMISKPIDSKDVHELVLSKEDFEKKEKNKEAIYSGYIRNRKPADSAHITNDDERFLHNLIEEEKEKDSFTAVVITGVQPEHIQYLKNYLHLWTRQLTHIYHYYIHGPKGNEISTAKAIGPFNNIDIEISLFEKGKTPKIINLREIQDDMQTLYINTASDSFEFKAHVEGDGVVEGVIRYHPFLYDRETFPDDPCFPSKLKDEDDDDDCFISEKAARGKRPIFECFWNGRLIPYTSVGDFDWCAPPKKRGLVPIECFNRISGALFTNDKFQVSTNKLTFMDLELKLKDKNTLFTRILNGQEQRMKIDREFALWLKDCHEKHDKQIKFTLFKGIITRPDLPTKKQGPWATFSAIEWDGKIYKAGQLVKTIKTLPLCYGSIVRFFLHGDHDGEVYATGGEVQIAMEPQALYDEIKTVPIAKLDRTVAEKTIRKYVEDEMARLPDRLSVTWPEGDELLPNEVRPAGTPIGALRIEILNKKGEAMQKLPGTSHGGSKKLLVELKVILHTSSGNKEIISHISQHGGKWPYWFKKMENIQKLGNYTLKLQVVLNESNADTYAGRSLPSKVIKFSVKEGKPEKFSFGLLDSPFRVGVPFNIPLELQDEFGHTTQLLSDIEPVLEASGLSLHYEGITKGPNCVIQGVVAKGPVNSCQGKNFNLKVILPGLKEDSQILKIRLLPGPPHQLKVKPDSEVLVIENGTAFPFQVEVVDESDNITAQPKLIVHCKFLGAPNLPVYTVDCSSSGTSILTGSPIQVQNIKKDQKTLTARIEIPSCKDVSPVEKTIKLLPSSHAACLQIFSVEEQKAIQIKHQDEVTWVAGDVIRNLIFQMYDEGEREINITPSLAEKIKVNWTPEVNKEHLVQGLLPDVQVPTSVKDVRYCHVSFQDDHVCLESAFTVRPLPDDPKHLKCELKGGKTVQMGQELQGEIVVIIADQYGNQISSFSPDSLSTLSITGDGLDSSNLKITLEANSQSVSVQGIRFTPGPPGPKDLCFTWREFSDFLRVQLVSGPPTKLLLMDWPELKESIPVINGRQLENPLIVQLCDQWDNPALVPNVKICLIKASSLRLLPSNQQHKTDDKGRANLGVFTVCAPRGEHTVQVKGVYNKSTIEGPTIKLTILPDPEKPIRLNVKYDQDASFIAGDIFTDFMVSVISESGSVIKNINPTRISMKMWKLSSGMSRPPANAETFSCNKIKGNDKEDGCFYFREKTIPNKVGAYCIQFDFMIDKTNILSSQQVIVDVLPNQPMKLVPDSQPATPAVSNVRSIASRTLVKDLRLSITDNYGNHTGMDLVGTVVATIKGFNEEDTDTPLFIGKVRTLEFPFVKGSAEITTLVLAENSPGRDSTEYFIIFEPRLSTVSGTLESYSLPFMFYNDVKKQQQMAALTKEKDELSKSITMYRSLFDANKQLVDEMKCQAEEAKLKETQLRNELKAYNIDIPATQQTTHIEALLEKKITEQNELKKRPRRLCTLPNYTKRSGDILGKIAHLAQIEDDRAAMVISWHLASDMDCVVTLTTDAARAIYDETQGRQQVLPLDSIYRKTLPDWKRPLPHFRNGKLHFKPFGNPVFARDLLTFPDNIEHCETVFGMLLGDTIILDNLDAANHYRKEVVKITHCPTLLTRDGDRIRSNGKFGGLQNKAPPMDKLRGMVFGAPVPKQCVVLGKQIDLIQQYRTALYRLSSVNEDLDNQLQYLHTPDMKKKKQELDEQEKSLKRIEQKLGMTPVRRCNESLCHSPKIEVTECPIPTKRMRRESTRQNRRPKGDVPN

The target in test [1] is BioID2-NICD (HEK293 stable line) (mouse) (UniProt Q01705). The experiment in a line: proximity labelling; BioID: BioID2-NICD stably expressed in HEK293 cells, 1 μg/ml doxycycline 24 h then 50 μM biotin 18 h; lysis in 8 M urea; streptavidin capture; LC-MS/MS; biological triplicate; hits in at least two of three samples and at least 3-fold over BioID2-only.
Test [2] deals with BioID2-NICD (NIH3T3 stable line) (mouse) (UniProt Q01705). Nature of the test: proximity labelling; BioID: BioID2-NICD stably expressed in NIH3T3 cells, 1 μg/ml doxycycline 24 h then 50 μM biotin 18 h; lysis in 8 M urea; streptavidin capture; LC-MS/MS; biological triplicate; hits in at least two of three samples and at least 3-fold over BioID2-only.
Test [3] concerns the target BioID2-NICD (HEK293 or NIH3T3 stable line; the text does not tell which) (mouse) (UniProt Q01705). Nature of the test: proximity labelling; BioID as in HEK293 and NIH3T3 stable lines; results told for the study as a whole (core-proximal proteins found in at least two of HEK293, 3T3 and BioGRID, and others) without naming the cell line.

No constants are given. Whether binding was seen depends on the method and setting. In cells and extracts the contact can be indirect. A yes stands for co-enrichment or nearness to the bait. Other partners may have been found.

Turning to “GATAD2B, human (from UniProt Q8WXI9 1-593)”, in test [1], the binding result is reported as “binds”. As to “GATAD2B, mouse (from UniProt Q8VHR5 1-594)”, the binding result in test [2] is “binds”. With “MAML2, human (from UniProt Q8IZL2 1-1156)”, in test [1], the binding entry is given as “binds”. As to “SMCHD1, mouse (from UniProt Q6P5D8 1-2007)”, the binding result in test [2] was “binds”.

B1: replication factor C (RFC)1 (protein, UniProt P35251 1-1148)
chain: MDIRKFFGVIPSGKKLVSETVKKNEKTKSDEETLKAKKGIKEIKVNSSRKEDDFKQKQPSKKKRIIYDSDSESEETLQVKNAKKPPEKLPVSSKPGKISRQDPVTYISETDEEDDFMCKKAASKSKENGRSTNSHLGTSNMKKNEENTKTKNKPLSPIKLTPTSVLDYFGTGSVQRSNKKMVASKRKELSQNTDESGLNDEAIAKQLQLDEDAELERQLHEDEEFARTLAMLDEEPKTKKARKDTEAGETFSSVQANLSKAEKHKYPHKVKTAQVSDERKSYSPRKQSKYESSKESQQHSKSSADKIGEVSSPKASSKLAIMKRKEESSYKEIEPVASKRKENAIKLKGETKTPKKTKSSPAKKESVSPEDSEKKRTNYQAYRSYLNREGPKALGSKEIPKGAENCLEGLIFVITGVLESIERDEAKSLIERYGGKVTGNVSKKTNYLVMGRDSGQSKSDKAAALGTKIIDEDGLLNLIRTMPGKKSKYEIAVETEMKKESKLERTPQKNVQGKRKISPSKKESESKKSRPTSKRDSLAKTIKKETDVFWKSLDFKEQVAEETSGDSKARNLADDSSENKVENLLWVDKYKPTSLKTIIGQQGDQSCANKLLRWLRNWQKSSSEDKKHAAKFGKFSGKDDGSSFKAALLSGPPGVGKTTTASLVCQELGYSYVELNASDTRSKSSLKAIVAESLNNTSIKGFYSNGAASSVSTKHALIMDEVDGMAGNEDRGGIQELIGLIKHTKIPIICMCNDRNHPKIRSLVHYCFDLRFQRPRVEQIKGAMMSIAFKEGLKIPPPAMNEIILGANQDIRQVLHNLSMWCARSKALTYDQAKADSHRAKKDIKMGPFDVARKVFAAGEETAHMSLVDKSDLFFHDYSIAPLFVQENYIHVKPVAAGGDMKKHLMLLSRAADSICDGDLVDSQIRSKQNWSLLPAQAIYASVLPGELMRGYMTQFPTFPSWLGKHSSTGKHDRIVQDLALHMSLRTYSSKRTVNMDYLSLLRDALVQPLTSQGVDGVQDVVALMDTYYLMKEDFENIMEISSWGGKPSPFSKLDPKVKAAFTRAYNKEAHLTPYSLQAIKASRHSTSPSLDSEYNEELNEDDSQSDEKDQDAIETDAMIKKKTKSSKPSKPEKDKEPRKGKGKSSKK
For the molecule B1, the binding result in test [3] is on record as “binds”.

B2: C11orf30 (protein, UniProt Q7Z589 1-1322)
chain: MPVVWPTLLDLSRDECKRILRKLELEAYAGVISALRAQGDLTKEKKDLLGELSKVLSISTERHRAEVRRAVNDERLTTIAHNMSGPNSSSEWSIEGRRLVPLMPRLVPQTAFTVTANAVANAAIQHNASLPVPAETGSKEVVCYSYTSTTSTPTSTPVPSGSIATVKSPRPASPASNVVVLPSGSTVYVKSVSCSDEDEKPRKRRRTNSSSSSPVVLKEVPKAVVPVSKTITVPVSGSPKMSNIMQSIANSLPPHMSPVKITFTKPSTQTTNTTTQKVIIVTTSPSSTFVPNILSKSHNYAAVTKLVPTSVIASTTQKPPVVITASQSSLVSNSSSGSSSSTPSPIPNTVAVTAVVSSTPSVVMSTVAQGVSTSAIKMASTRLPSPKSLVSAPTQILAQFPKQHQQSPKQQLYQVQQQTQQQVAQPSPVSHQQQPQQSPLPPGIKPTIQIKQESGVKIITQQVQPSKILPKPVTATLPTSSNSPIMVVSSNGAIMTTKLVTTPTGTQATYTRPTVSPSIGRMAATPGAATYVKTTSGSIITVVPKSLATLGGKIISSNIVSGTTTKITTIPMTSKPNVIVVQKTTGKGTTIQGLPGKNVVTTLLNAGGEKTIQTVPTGAKPAILTATRPITKMIVTQPKGIGSTVQPAAKIIPTKIVYGQQGKTQVLIKPKPVTFQATVVSEQTRQLVTETLQQASRVAEAGNSSIQEGKEEPQNYTDSSSSSTESSQSSQDSQPVVHVIASRRQDWSEHEIAMETSPTIIYQDVSSESQSATSTIKALLELQQTTVKEKLESKPRQPTIDLSQMAVPIQMTQEKRHSPESPSIAVVESELVAEYITTERTDEGTEVAFPLLVSHRSQPQQPSQPQRTLLQHVAQSQTATQTSVVVKSIPASSPGAITHIMQQALSSHTAFTKHSEELGTEEGEVEEMDTLDPQTGLFYRSALTQSQSAKQQKLSQPPLEQTQLQVKTLQCFQTKQKQTIHLQADQLQHKLPQMPQLSIRHQKLTPLQQEQAQPKPDVQHTQHPMVAKDRQLPTLMAQPPQTVVQVLAVKTTQQLPKLQQAPNQPKIYVQPQTPQSQMSLPASSEKQTASQVEQPIITQGSSVTKITFEGRQPPTVTKITGGSSVPKLTSPVTSISPIQASEKTAVSDILKMSLMEAQIDTNVEHMIVDPPKKALATSMLTGEAGSLPSTHMVVAGMANSTPQQQKCRESCSSPSTVGSSLTTRKIDPPAVPATGQFMRIQNVGQKKAEESPAEIIIQAIPQYAIPCHSSSNVVVEPSGLLELNNFTSQQLDDEETAMEQDIDSSTEDGTEPSPSQSSAERS
Regarding B2, the binding result in test [3] is listed as “binds”.

B3: SNW1, mouse (protein, UniProt Q9CSN1 1-536)
chain: MALTSFLPAPTQLSQDQLEAEERARSQRSLQTSLVSSRREPPPYGYRKGWIPRLLEDFGDGGAFPEIHVAQYPLDMGRKKKMSNALAIQVDPEGKIKYDAIARQGQSKDKVIYSKYTDLVPKEVMNADDPDLQRPDEEAIKEITEKTRVALEKSVSQKVAAAMPVRAADKLAPAQYIRYTPSQQGVAFNSGAKQRVIRMVEMQKEPMEPPRFKINKKIPRGPPSPPAPVMHSPSRKMTVKEQQEWKIPPCISNWKNAKGYTIPIDKRLAADGRGLQTVHINENFAKLAEALYIADRKAREAVEMRAQVERKMAQKEKEKHEEKLREMAQKARERRAGIKTHVEKEDGEARERDEIRHDRRKERQHDRNLSRAAPDKRSKLQRNENRDISEVIALGVPNPRTSNEVQYDQRLFNQSKGMDSGFAGGEDEIYNVYDQAWRGGKDMAQSIYRPSKNLDKDMYGDDLEARIKTNRFVPDKEFSGSDRKQRGREGPVQFEEDPFGLDKFLEEAKQHGGSKRPSDSSRPKEHEHEGKKRRKE
Regarding B3, in test [2], the binding result is “binds”.

B4: PPIL4 (protein, UniProt Q8WUA2 1-492)
chain: MAVLLETTLGDVVIDLYTEERPRACLNFLKLCKIKYYNYCLIHNVQRDFIIQTGDPTGTGRGGESIFGQLYGDQASFFEAEKVPRIKHKKKGTVSMVNNGSDQHGSQFLITTGENLDYLDGVHTVFGEVTEGMDIIKKINETFVDKDFVPYQDIRINHTVILDDPFDDPPDLLIPDRSPEPTREQLDSGRIGADEEIDDFKGRSAEEVEEIKAEKEAKTQAILLEMVGDLPDADIKPPENVLFVCKLNPVTTDEDLEIIFSRFGPIRSCEVIRDWKTGESLCYAFIEFEKEEDCEKAFFKMDNVLIDDRRIHVDFSQSVAKVKWKGKGGKYTKSDFKEYEKEQDKPPNLVLKDKVKPKQDTKYDLILDEQAEDSKSSHSHTSKKHKKKTHHCSEEKEDEDYMPIKNTNQDIYREMGFGHYEEEESCWEKQKSEKRDRTQNRSRSRSRERDGHYSNSHKSKYQTDLYERERSKKRDRSRSPKKSKDKEKSKYR
For the molecule B4, the binding result in test [3] is “binds”.

B5: ZNF687 (protein, UniProt Q8N1G0 1-1237)
chain: MGDMKTPDFDDLLAAFDIPDIDANEAIHSGPEENEGPGGPGKPEPGVGSESEDTAAASAGDGPGVPAQASDHGLPPPDISVVSVIVKNTVCPEQSEALAGGSAGDGAQAAGVTKEGPVGPHRMQNGFGSPEPSLPGTPHSPAPPSGGTWKEKGMEGKTPLDLFAHFGPEPGDHSDPLPPSAPSPTREGALTPPPFPSSFELAQENGPGMQPPVSSPPLGALKQESCSPHHPQVLAQQGSGSSPKATDIPASASPPPVAGVPFFKQSPGHQSPLASPKVPVCQPLKEEDDDEGPVDKSSPGSPQSPSSGAEAADEDSNDSPASSSSRPLKVRIKTIKTSCGNITRTVTQVPSDPDPPAPLAEGAFLAEASLLKLSPATPTSEGPKVVSVQLGDGTRLKGTVLPVATIQNASTAMLMAASVARKAVVLPGGTATSPKMIAKNVLGLVPQALPKADGRAGLGTGGQKVNGASVVMVQPSKTATGPSTGGGTVISRTQSSLVEAFNKILNSKNLLPAYRPNLSPPAEAGLALPPTGYRCLECGDAFSLEKSLARHYDRRSMRIEVTCNHCARRLVFFNKCSLLLHAREHKDKGLVMQCSHLVMRPVALDQMVGQPDITPLLPVAVPPVSGPLALPALGKGEGAITSSAITTVAAEAPVLPLSTEPPAAPATSAYTCFRCLECKEQCRDKAGMAAHFQQLGPPAPGATSNVCPTCPMMLPNRCSFSAHQRMHKNRPPHVCPECGGNFLQANFQTHLREACLHVSRRVGYRCPSCSVVFGGVNSIKSHIQTSHCEVFHKCPICPMAFKSGPSAHAHLYSQHPSFQTQQAKLIYKCAMCDTVFTHKPLLSSHFDQHLLPQRVSVFKCPSCPLLFAQKRTMLEHLKNTHQSGRLEETAGKGAGGALLTPKTEPEELAVSQGGAAPATEESSSSSEEEEVPSSPEPPRPAKRPRRELGSKGLKGGGGGPGGWTCGLCHSWFPERDEYVAHMKKEHGKSVKKFPCRLCERSFCSAPSLRRHVRVNHEGIKRVYPCRYCTEGKRTFSSRLILEKHVQVRHGLQLGAQSPGRGTTLARGSSARAQGPGRKRRQSSDSCSEEPDSTTPPAKSPRGGPGSGGHGPLRYRSSSSTEQSLMMGLRVEDGAQQCLDCGLCFASPGSLSRHRFISHKKRRGVGKASALGLGDGEEEAPPSRSDPDGGDSPLPASGGPLTCKVCGKSCDSPLNLKTHFRTHGMAFIRARQGAVGDN
Regarding B5, in test [3], the binding result is on record as “binds”.
